Measured values from patent US5618693.

Chains of the proteins cited; added tags and fusions are not shown. Residues count along the entry.
UniProt P42224, 2-750: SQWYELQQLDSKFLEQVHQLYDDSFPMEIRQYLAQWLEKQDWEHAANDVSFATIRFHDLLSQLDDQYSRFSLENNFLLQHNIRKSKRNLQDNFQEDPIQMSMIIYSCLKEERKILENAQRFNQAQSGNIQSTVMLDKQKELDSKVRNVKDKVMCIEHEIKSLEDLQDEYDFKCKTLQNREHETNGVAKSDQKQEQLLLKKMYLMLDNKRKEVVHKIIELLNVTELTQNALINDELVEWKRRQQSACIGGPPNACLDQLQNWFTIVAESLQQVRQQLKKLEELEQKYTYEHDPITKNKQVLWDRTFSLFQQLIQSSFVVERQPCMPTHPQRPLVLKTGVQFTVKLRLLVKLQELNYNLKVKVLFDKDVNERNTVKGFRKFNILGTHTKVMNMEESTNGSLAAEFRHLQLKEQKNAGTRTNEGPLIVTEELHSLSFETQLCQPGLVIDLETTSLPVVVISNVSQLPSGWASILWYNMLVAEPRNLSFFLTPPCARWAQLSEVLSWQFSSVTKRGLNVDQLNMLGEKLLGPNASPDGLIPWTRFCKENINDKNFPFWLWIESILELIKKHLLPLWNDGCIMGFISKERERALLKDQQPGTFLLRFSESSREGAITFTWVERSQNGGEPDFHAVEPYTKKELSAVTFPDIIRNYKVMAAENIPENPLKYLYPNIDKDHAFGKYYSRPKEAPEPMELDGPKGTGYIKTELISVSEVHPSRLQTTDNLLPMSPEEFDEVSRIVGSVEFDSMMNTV
UniProt P40763, 2-770: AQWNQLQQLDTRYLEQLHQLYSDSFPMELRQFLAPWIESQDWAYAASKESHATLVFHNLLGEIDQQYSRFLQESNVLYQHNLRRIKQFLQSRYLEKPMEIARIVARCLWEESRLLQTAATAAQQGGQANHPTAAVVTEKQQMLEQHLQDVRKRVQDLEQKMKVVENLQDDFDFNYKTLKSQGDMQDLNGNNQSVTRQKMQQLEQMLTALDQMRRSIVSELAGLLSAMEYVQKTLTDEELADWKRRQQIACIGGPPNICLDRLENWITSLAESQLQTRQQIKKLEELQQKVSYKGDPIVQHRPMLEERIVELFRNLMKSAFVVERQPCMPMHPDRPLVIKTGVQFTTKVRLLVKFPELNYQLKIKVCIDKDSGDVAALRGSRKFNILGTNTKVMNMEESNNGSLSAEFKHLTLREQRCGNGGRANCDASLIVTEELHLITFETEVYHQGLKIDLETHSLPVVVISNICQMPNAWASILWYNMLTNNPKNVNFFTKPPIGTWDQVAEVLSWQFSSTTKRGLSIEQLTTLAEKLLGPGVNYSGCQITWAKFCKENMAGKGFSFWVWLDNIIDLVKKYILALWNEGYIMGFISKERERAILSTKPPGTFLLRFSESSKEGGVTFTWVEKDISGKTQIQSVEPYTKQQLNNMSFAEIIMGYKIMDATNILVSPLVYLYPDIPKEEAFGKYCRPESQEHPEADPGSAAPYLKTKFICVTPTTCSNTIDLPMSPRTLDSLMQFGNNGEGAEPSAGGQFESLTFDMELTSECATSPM

What was measured:
[1] = target: T1, hStat 5 (Y2/P2 complex, MGF/Stat 5-related) (Homo sapiens) (UniProt P42229); experiment: competition with a labelled probe; settings: 100-fold molar excess mutant does not compete (stated for Y2); protein in an extract; variant of FcgRI IL-4 response element probe
T1 sequence: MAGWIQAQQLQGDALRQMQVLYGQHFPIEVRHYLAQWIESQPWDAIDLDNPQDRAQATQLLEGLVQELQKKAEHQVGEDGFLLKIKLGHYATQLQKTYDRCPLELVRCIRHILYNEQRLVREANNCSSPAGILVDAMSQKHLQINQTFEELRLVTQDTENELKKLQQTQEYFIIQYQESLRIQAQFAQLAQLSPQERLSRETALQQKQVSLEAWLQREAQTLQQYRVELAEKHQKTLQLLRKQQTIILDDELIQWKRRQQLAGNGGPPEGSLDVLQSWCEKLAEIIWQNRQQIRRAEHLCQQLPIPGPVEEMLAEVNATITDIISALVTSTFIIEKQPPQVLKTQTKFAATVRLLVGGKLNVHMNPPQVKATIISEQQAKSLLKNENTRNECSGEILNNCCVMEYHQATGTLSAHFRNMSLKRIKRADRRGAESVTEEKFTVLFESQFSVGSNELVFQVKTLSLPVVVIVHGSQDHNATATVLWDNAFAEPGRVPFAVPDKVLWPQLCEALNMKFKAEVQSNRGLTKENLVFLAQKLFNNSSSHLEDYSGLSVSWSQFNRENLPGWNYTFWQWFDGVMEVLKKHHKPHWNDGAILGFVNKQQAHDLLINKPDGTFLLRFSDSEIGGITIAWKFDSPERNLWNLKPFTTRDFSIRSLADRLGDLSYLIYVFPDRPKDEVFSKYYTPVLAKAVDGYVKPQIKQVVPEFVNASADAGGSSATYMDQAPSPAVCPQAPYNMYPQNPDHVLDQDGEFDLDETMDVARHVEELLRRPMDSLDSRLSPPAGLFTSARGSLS

[2] = target: Stat 1 (Y3/P1 complex) (Homo sapiens) (UniProt P42224); experiment: competition with a labelled probe; settings: 100-fold molar excess mutant does not compete P1/Y3; protein in an extract; variant of FcgRI IL-4 response element probe
[3] = target: T1, hStat 5 (Y2/P2 complex, MGF/Stat 5-related) (Homo sapiens); experiment: EMSA; settings: protein in an extract
[4] = target: Stat 3 (Y1 complex) (Homo sapiens) (UniProt P40763); experiment: EMSA; settings: constitutive Y1 complex altered by Stat 3 antibody; specific by competition; protein in an extract; protein details: native, YT cell nuclear extract
[5] = target: Stat 1 (Y3/P1 complex) (Homo sapiens) (UniProt P42224); experiment: EMSA; settings: Y3/P1 complex supershifted by Stat 1 antibody; competed by specific DNA; protein in an extract

Sequence: GTATCACCCAGTCAAGGAAC (double strand) [mutated FcgRI probe]
- binding result [1]: no binding
- binding result [2]: no binding

Sequence: GTATTTCCCAGAAAAGGAAC (double strand) [FcgRI IL-4 response element probe]
- binding result [3]: binds
- binding result [4]: binds
- binding result [5]: binds

Results from cells or extracts need not show a direct contact. For some assays here: A negative result means that nothing was seen under these conditions. For some assays here: Protein sequences can lack the tags named with them.
